Results as given in patent US20220370463A1, “STABILIZED C-FMS INTRACELLULAR FRAGMENTS (FICD) PROMOTE OSTEOCLAST DIFFERENTIATION AND ARTHRITIC BONE EROSION” (New York Society for the Relief of the Ruptured and …, priority 2019, published 2022).
These are yes or no findings as the source states them, for the method shown. In cells and extracts the contact can be indirect. Some entries that bind do so weakly or less than the wild type. Sequences can lack the tags named with a protein.

How the values were obtained:
[1] = target: T1, DAP5 (eIF4G2), endogenous in mouse BMDMs (mouse) (UniProt Q62448); test: co-immunoprecipitation (discussion of results)
T1 sequence (looked up): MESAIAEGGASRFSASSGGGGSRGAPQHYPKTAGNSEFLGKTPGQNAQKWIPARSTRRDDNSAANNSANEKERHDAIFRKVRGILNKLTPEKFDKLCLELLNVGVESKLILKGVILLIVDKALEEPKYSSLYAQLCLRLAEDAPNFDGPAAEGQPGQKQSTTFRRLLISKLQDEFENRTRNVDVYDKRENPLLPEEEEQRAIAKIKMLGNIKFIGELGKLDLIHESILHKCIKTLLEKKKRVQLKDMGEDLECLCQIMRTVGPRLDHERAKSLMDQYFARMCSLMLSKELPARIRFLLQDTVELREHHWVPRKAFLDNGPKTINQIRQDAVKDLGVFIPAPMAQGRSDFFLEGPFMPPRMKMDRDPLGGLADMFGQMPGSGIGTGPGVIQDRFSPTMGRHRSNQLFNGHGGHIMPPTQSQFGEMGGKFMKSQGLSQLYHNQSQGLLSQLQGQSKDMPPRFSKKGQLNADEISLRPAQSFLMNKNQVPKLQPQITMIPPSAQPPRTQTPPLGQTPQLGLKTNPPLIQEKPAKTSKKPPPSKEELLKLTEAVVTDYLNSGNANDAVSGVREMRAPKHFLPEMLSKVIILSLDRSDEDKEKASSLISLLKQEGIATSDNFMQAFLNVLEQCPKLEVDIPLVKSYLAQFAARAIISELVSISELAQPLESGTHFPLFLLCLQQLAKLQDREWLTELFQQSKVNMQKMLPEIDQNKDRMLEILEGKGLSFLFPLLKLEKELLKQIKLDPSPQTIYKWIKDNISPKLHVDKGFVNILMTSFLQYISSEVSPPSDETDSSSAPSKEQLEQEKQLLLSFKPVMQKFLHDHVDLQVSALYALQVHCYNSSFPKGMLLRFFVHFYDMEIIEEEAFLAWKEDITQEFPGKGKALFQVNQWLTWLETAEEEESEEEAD

[2] = target: T1, DAP5 (eIF4G2), endogenous in mouse BMDMs (mouse); test: co-immunoprecipitation with anti-HA-tag beads from BMDM lysates, immunoblot
[3] = target: T1, DAP5 (eIF4G2), endogenous in mouse BMDMs (mouse); test: co-immunoprecipitation (summary of findings)

binding [1]: binds
binding [2]: binds
binding [3]: binds
B1: HA-tagged FICD (human CSF1R intracellular domain) expressed in BMDMs of FICDtg^M mice (protein, UniProt P07333 539-972, looked up, not shown: small tags and cut ends)
chain: KYKQKPKYQVRWKIIESYEGNSYTFIDPTQLPYNEKWEFPRNNLQFGKTLGAGAFGKVVEATAFGLGKEDAVLKVAVKMLKSTAHADEKEALMSELKIMSHLGQHENIVNLLGACTHGGPVLVITEYCCYGDLLNFLRRKAEAMLGPSLSPGQDPEGGVDYKNIHLEKKYVRRDSGFSSQGVDTYVEMRPVSTSSNDSFSEQDLDKEDGRPLELRDLLHFSSQVAQGMAFLASKNCIHRDVAARNVLLTNGHVAKIGDFGLARDIMNDSNYIVKGNARLPVKWMAPESIFDCVYTVQSDVWSYGILLWEIFSLGLNPYPGILVNSKFYKLVKDGYQMAQPAFAPKNIYSIMQACWALEPTHRPTFQQICSFLQEQAQEDRRERDYTNLPSSSRSGGSGSSSSELEEESSSEHLTCCEQGDIAQPLLQPNNYQFC
